Measured values as given in the supplement of paper PMC12067093, “Discovery and optimisation of a covalent ligand for TRIM25 and its application to targeted protein ubiquitination” (Chemical Science, 2025).
The other results are listed elsewhere or left out.

By UniProt entry, the sequences of proteins in these tests, tags left out. Where a name states a change or a piece, a line headed by the entry shows the natural chain unless it says otherwise.
UniProt O43865, whole entry, looked up: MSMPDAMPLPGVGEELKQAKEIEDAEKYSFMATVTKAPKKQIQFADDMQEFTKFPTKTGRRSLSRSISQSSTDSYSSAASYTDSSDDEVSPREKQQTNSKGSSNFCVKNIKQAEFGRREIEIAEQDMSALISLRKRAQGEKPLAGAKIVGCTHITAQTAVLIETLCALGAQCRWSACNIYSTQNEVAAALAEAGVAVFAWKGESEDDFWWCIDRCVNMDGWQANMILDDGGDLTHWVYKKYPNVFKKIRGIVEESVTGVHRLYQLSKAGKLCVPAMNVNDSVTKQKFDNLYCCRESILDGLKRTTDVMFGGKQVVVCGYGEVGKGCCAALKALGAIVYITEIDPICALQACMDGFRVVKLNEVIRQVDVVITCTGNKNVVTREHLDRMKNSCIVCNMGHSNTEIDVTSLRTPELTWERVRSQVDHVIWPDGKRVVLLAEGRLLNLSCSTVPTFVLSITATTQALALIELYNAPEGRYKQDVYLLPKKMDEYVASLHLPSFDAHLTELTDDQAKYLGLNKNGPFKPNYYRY
UniProt Q01484: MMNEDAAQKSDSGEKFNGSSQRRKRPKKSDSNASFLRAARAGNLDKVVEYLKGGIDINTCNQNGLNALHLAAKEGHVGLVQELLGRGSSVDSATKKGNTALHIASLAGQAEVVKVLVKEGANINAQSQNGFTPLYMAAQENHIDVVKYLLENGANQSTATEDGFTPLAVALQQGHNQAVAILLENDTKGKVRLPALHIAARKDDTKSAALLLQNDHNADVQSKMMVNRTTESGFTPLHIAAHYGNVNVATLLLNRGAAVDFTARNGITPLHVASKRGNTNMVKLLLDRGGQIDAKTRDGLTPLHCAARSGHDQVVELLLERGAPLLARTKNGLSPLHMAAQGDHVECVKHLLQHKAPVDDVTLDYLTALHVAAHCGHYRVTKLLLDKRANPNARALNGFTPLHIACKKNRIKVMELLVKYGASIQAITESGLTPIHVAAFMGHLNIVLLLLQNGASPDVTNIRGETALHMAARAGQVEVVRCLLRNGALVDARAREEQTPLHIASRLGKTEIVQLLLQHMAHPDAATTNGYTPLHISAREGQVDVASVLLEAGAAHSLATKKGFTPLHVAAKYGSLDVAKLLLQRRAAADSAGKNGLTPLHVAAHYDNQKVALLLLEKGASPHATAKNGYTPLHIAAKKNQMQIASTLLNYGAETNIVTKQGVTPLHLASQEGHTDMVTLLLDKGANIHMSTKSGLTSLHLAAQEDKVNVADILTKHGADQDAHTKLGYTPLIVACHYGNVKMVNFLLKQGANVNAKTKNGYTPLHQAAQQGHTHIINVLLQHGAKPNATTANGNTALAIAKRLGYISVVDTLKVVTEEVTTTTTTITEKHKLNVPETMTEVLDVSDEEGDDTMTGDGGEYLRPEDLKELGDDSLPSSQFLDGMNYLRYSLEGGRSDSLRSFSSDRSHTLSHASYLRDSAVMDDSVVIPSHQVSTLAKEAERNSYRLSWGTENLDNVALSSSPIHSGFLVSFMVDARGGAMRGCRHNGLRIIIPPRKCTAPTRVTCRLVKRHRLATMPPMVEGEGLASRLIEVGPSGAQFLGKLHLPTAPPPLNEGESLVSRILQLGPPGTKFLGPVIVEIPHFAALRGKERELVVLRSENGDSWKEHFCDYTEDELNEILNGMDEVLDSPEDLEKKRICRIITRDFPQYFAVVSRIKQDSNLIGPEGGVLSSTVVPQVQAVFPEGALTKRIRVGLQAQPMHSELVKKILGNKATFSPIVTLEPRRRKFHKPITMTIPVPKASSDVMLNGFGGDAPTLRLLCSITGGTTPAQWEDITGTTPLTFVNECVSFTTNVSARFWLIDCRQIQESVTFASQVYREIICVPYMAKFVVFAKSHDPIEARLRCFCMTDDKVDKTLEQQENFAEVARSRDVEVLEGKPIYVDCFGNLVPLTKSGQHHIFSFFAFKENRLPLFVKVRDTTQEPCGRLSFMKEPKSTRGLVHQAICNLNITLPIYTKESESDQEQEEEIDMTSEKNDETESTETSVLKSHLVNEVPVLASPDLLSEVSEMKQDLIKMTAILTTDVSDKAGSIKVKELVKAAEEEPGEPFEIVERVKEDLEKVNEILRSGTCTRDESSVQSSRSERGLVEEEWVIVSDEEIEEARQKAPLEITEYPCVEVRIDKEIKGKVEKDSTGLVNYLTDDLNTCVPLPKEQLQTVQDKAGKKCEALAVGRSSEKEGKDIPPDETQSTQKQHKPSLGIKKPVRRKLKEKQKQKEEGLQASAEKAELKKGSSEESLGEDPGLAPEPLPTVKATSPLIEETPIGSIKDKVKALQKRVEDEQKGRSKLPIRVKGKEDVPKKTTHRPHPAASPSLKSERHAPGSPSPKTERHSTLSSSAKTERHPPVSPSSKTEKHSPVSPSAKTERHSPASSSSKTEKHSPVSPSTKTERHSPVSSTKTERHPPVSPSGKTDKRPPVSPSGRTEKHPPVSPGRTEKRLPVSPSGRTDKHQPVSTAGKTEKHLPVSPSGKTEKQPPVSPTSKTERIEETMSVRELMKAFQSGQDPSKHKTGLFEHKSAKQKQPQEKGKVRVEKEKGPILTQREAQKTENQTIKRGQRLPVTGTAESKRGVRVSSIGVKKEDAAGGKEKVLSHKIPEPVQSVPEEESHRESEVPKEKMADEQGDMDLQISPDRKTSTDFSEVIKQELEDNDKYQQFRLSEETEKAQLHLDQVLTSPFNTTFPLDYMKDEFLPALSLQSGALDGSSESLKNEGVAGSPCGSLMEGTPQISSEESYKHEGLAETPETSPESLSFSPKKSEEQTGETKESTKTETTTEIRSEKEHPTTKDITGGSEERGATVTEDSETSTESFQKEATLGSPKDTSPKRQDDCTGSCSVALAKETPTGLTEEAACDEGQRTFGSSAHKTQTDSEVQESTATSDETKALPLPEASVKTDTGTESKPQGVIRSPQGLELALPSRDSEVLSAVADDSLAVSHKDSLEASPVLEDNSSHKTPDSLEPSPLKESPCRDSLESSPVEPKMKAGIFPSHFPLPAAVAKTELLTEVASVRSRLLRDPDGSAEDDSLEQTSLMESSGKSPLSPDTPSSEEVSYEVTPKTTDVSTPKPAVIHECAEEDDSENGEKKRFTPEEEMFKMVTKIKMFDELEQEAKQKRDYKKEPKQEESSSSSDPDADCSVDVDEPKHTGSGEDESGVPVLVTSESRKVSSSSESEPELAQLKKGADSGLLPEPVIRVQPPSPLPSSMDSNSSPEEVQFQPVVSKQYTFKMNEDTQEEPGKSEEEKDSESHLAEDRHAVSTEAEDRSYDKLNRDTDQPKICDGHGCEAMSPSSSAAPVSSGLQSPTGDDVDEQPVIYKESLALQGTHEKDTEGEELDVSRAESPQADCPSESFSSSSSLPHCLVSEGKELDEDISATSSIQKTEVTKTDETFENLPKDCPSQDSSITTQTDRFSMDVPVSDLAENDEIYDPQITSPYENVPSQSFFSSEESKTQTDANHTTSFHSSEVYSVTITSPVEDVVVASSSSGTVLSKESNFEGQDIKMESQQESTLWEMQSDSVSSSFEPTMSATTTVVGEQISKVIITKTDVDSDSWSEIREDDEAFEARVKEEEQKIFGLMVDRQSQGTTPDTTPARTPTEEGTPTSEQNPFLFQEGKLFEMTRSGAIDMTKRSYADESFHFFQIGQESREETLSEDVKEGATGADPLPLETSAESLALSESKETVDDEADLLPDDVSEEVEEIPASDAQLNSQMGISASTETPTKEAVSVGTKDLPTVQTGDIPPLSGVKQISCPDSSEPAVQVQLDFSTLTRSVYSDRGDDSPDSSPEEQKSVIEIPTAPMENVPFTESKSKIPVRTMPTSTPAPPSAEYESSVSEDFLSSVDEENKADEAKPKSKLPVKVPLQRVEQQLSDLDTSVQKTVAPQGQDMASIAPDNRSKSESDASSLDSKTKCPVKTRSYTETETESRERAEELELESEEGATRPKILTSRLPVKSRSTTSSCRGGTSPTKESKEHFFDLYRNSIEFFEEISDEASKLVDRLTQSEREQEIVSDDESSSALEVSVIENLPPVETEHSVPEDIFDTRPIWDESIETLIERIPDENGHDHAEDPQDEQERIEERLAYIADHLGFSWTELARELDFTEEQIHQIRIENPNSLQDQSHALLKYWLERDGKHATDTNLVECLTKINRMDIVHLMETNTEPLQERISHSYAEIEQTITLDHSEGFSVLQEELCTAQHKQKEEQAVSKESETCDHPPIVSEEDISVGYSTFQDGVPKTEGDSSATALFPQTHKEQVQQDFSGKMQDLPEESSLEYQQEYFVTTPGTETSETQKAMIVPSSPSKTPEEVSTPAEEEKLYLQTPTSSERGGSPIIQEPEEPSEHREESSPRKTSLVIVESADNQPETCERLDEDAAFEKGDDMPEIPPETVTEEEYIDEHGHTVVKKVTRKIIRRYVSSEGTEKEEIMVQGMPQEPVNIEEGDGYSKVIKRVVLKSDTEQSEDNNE
UniProt Q9UKV5, whole entry, looked up: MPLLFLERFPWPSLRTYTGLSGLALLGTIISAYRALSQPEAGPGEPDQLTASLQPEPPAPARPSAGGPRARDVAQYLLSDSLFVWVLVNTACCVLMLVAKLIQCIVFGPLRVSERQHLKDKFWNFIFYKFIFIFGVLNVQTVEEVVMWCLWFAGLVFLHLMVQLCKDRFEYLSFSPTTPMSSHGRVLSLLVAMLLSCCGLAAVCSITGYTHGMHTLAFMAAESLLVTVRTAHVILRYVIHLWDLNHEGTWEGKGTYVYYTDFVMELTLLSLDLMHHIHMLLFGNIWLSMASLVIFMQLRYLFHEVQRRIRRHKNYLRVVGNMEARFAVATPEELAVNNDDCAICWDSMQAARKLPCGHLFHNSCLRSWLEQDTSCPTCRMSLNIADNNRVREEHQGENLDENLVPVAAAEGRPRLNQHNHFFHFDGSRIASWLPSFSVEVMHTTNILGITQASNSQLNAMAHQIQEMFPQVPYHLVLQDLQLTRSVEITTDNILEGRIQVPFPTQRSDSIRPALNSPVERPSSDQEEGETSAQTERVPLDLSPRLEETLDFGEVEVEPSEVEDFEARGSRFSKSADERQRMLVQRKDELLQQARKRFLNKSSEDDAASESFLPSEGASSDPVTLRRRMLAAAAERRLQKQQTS
UniProt O00116: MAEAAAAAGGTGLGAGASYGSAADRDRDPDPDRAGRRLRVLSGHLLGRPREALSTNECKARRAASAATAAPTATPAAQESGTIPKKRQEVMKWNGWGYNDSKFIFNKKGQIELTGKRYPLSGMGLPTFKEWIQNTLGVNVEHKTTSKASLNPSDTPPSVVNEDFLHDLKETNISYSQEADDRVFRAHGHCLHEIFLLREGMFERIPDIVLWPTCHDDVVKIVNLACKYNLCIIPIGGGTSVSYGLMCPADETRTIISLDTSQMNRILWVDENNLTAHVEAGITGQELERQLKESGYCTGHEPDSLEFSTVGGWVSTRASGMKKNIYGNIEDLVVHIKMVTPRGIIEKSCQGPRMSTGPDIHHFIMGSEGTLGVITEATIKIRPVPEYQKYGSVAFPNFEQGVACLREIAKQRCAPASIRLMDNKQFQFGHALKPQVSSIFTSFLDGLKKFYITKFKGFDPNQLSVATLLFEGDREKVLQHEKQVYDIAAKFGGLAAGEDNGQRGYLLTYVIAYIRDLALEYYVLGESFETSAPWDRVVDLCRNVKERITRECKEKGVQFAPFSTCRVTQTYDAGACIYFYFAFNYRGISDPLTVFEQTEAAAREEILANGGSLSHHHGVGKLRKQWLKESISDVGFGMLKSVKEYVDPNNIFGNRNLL
UniProt P51648: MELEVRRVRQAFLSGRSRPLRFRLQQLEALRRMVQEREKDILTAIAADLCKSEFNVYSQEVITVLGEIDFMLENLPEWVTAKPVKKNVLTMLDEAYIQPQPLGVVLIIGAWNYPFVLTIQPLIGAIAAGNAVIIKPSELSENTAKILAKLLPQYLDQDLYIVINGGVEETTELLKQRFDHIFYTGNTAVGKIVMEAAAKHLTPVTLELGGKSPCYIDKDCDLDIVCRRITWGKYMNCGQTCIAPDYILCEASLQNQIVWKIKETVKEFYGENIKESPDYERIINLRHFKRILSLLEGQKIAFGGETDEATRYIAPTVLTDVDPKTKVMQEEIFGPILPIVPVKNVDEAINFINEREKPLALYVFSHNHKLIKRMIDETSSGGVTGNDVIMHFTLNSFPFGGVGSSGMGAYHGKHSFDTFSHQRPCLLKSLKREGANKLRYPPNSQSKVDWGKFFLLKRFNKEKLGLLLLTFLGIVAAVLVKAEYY
UniProt P00568: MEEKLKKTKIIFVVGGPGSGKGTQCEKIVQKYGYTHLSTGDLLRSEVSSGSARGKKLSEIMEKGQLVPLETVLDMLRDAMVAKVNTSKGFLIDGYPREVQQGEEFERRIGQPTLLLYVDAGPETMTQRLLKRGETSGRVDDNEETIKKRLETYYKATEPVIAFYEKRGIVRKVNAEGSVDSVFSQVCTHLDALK

Compound: Cc1cc(ccc1-c1ccccc1)C(=O)N1CCCN(CC1)C(=O)CCl [compound 10]
Experiment: probe-labelled cysteine peptide fold change vs DMSO (competition) (log2 fold change); higher = less target engagement (more negative = stronger competition)
Conditions: 50 µM; THP-1; incubation time: 4 h
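Also: competitive profiling in live THP-1 cells: cysteine peptides tagged with an iodoacetamide desthiobiotin (IA-DTB) probe, intensity after compound treatment relative to DMSO-treated cells.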

Question: For “AIP_O00170_78_FKLPVWETIVCTMR (UniProt O00170)”, which “probe-labelled cysteine peptide fold change” value is on record?
Answer: The value was -0.108.

Question: How did the “probe-labelled cysteine peptide fold change” value turn out when “AHCYL1_O43865_211_GESEDDFWWCIDR (UniProt O43865)” was run?
Answer: The value was 0.247.

Question: For “AMN1_Q8IY45_230_ILLFHGCPLITDHSR (UniProt Q8IY45)”, which “probe-labelled cysteine peptide fold change” value is on record?
Answer: Its value is -0.121.

Question: “ANK2_Q01484_375_APVDDVTLDYLTALHVAAHCGHYR (UniProt Q01484)” was tested. Which “probe-labelled cysteine peptide fold change” value did it give?
Answer: Its value is -0.271.

Question: Which “probe-labelled cysteine peptide fold change” value does the source give for “ALDOC_P09972_73_KCIGGVIFFHETLYQK (UniProt P09972)” here?
Answer: The value was -0.0656.

Question: With “ALCAM_Q13740_270_CLGNGNPPPEEFLFYLPGQPEGIR (UniProt Q13740)” as the target, how does the “probe-labelled cysteine peptide fold change” value read?
Answer: The value was 0.0758.

Question: How did the “probe-labelled cysteine peptide fold change” value turn out when “ALG2_Q9H553_70_CAGDWLPR (UniProt Q9H553)” was run?
Answer: Its value is 0.0183.

Question: Which “probe-labelled cysteine peptide fold change” value does the source give for “ALAD_P13716_162_AGCQVVAPSDMMDGRVEAIK (UniProt P13716)” here?
Answer: Its value is -0.357.

Question: How did the “probe-labelled cysteine peptide fold change” value turn out when “AMFR_Q9UKV5_364_KLPCGHLFHNSCLR (UniProt Q9UKV5)” was run?
Answer: The value was -0.0323.

Question: How did the “probe-labelled cysteine peptide fold change” value turn out when “AHCYL2_Q96HN2_454_QVDIVITCTGNK (UniProt Q96HN2)” was run?
Answer: Its value is 0.000534.

Question: Which “probe-labelled cysteine peptide fold change” value does the source give for “AGPS_O00116_247_YNLCIIPIGGGTSVSYGLMCPADETR (UniProt O00116)” here?
Answer: The value was -1.53e-05.

Question: Which “probe-labelled cysteine peptide fold change” value does the source give for “ALDH3A2_P51648_50_DILTAIAADLCK (UniProt P51648)” here?
Answer: The value was 0.0936.

Question: Which “probe-labelled cysteine peptide fold change” value does the source give for “ANKFY1_Q9P2R3_712+716_HGCDATCWGPGPGGCLQTLLHR (UniProt Q9P2R3)” here?
Answer: The value was 0.0105.

Question: Which “probe-labelled cysteine peptide fold change” value does the source give for “ANAPC1_Q9H1A4_575_LHDSLYNEDCTFQQLGTYIHSIRDPVHNR (UniProt Q9H1A4)” here?
Answer: Its value is 0.147.

Question: Which “probe-labelled cysteine peptide fold change” value does the source give for “AK1_P00568_187_KVNAEGSVDSVFSQVCTHLDALK (UniProt P00568)” here?
Answer: Its value is -0.254.

Question: “AGPS_O00116_297_ESGYCTGHEPDSLEFSTVGGWVSTR (UniProt O00116)” was tested. Which “probe-labelled cysteine peptide fold change” value did it give?
Answer: The value was -0.0291.
